Experimental data reported in the supplement of paper PMC10849652.
Some of the results follow.

Amino acid sequences for entries named in this document (tags omitted). A change or cut given only in a name is not applied to a line headed by its entry.
UniProt P07864: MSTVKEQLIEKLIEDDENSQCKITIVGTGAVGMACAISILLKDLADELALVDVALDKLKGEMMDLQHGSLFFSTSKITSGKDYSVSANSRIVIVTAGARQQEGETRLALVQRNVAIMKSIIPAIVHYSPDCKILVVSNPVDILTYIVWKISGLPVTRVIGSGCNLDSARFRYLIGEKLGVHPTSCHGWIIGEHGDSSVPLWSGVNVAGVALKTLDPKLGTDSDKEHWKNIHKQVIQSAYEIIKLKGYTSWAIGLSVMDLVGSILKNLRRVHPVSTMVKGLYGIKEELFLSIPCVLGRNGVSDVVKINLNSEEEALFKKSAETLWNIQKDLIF
UniProt Q86WA8: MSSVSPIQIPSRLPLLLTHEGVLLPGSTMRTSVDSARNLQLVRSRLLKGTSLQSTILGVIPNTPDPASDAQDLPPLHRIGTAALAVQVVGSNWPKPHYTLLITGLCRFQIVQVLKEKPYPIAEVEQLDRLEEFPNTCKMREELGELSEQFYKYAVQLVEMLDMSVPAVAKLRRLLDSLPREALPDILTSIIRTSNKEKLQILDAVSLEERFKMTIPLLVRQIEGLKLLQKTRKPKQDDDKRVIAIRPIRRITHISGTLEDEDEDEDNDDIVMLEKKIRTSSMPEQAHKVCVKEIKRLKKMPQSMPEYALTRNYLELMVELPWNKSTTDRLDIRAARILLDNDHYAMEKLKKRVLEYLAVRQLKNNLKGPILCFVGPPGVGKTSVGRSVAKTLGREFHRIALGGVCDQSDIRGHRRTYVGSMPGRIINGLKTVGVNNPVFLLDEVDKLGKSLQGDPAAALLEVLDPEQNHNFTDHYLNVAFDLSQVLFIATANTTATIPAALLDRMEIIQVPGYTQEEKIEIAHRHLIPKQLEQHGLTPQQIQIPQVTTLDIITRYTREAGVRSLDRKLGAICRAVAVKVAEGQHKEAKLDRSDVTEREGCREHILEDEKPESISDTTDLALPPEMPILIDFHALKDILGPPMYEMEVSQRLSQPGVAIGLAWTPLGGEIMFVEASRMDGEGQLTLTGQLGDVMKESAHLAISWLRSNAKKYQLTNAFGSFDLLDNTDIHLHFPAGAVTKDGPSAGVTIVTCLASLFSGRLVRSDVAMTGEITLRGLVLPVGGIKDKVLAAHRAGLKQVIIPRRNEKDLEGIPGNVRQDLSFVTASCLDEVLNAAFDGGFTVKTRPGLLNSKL
UniProt P80188: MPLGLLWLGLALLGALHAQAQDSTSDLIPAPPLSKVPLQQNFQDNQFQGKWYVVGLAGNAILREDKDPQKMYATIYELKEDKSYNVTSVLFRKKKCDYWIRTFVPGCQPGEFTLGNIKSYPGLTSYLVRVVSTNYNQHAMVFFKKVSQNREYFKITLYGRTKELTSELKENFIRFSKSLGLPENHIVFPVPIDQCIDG
UniProt O75581: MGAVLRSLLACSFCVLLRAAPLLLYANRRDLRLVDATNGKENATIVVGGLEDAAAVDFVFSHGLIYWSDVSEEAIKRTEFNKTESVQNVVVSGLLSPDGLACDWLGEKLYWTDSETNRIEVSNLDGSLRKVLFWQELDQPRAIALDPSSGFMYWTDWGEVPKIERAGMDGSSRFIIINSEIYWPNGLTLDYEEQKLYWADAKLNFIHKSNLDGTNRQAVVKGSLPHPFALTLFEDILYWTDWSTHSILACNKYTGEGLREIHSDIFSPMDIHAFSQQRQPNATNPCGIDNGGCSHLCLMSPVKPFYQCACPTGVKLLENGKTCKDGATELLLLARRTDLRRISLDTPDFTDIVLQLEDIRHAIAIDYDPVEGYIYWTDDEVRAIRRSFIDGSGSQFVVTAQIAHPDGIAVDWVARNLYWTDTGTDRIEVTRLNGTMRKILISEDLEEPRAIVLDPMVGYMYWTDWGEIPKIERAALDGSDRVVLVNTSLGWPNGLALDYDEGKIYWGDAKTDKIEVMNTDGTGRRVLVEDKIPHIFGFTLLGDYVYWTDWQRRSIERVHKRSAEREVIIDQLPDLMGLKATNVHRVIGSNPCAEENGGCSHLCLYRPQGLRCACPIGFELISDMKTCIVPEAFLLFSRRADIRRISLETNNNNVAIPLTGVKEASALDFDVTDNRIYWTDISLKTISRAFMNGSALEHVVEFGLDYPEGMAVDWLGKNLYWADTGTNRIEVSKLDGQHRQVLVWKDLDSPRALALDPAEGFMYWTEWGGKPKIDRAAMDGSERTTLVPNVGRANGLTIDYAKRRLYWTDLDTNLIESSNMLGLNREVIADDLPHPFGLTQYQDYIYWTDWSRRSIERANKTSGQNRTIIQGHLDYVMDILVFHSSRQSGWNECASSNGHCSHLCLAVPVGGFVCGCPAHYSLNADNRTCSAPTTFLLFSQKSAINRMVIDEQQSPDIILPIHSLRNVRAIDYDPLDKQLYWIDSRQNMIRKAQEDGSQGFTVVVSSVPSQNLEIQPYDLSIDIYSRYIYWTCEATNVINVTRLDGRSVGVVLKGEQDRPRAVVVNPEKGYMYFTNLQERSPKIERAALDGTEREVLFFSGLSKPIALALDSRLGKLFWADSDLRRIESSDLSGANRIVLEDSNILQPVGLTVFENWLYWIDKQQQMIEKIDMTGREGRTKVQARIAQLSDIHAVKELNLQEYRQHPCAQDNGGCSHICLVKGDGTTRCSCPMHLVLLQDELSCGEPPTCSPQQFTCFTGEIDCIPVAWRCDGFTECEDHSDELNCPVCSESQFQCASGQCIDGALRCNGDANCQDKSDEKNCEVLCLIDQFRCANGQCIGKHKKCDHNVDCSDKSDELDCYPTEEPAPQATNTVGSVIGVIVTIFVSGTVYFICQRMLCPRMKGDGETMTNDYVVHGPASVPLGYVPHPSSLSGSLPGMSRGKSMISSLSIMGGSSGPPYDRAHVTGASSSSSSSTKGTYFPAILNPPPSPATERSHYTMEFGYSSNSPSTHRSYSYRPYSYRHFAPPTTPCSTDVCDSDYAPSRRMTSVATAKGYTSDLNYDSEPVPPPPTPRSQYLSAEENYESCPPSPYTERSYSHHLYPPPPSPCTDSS
UniProt A6NK58: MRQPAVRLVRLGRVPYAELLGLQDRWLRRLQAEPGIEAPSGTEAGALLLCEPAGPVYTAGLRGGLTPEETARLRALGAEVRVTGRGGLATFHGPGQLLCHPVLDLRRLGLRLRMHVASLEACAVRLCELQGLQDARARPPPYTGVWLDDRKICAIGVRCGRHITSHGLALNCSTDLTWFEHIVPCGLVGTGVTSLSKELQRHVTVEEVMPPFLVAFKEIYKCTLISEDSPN
UniProt P02750: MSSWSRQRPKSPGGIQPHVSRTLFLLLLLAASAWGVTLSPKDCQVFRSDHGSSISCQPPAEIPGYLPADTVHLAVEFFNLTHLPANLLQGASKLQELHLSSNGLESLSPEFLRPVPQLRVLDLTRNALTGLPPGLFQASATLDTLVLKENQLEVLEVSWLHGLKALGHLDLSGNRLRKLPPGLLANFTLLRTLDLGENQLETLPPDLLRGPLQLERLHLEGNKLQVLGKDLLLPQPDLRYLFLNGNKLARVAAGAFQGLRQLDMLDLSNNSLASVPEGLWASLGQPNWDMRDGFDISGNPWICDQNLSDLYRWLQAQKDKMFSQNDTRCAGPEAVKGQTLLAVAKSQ
UniProt Q8TBB1: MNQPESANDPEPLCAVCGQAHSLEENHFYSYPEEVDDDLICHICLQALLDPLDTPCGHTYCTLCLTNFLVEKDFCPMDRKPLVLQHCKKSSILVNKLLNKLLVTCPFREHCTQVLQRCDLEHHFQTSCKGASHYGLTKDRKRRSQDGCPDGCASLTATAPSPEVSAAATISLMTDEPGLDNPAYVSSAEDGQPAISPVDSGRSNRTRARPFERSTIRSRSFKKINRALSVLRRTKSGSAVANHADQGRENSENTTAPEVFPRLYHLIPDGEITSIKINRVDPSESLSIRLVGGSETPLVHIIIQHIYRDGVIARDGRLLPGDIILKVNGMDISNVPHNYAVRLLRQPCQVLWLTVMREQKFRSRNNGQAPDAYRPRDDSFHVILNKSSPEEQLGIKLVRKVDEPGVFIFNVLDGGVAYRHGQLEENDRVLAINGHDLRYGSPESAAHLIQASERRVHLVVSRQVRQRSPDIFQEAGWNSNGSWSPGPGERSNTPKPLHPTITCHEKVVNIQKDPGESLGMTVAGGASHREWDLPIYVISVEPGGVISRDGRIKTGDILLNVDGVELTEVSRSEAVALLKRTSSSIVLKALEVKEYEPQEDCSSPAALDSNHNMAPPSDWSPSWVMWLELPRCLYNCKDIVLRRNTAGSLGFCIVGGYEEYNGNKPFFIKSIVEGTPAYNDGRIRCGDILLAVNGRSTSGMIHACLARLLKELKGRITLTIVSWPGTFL
UniProt Q9BX40: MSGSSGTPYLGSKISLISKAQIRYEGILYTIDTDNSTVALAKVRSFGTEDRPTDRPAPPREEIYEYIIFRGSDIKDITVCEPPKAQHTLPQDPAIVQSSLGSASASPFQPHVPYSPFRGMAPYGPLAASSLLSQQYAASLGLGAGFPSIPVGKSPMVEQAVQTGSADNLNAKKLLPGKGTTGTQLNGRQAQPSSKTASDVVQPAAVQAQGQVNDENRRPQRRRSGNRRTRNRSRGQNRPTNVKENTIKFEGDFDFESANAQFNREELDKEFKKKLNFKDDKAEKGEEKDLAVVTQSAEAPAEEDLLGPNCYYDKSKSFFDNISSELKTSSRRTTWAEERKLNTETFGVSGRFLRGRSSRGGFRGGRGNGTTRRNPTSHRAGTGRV
UniProt Q52LA3: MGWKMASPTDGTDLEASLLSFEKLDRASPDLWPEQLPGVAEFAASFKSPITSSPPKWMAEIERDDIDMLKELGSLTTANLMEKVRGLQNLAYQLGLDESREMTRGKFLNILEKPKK
UniProt Q9Y2L9: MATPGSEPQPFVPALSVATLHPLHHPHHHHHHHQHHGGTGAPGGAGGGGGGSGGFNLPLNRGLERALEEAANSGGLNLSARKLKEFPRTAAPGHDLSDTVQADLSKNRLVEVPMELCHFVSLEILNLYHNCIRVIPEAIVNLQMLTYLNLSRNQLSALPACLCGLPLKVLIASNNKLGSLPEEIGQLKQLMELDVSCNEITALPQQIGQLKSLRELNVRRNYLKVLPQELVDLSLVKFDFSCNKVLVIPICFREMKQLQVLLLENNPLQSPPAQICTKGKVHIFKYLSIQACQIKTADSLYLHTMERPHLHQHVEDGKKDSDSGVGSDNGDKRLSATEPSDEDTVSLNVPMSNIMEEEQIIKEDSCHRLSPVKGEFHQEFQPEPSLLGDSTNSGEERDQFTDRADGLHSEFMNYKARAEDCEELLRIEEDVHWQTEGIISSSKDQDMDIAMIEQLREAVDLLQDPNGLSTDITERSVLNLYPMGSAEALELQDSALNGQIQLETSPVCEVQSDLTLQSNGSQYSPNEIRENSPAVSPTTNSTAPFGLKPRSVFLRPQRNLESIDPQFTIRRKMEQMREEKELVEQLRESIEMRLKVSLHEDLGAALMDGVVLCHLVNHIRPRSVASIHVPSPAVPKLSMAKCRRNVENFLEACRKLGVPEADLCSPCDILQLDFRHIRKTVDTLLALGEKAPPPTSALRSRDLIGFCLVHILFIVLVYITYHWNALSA
UniProt Q6ZUX7: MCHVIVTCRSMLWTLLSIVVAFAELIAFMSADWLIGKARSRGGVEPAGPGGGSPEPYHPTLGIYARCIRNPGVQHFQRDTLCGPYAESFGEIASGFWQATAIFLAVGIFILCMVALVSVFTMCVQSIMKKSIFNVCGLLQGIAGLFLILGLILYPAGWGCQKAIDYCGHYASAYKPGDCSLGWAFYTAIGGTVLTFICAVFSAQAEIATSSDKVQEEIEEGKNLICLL
UniProt Q15345: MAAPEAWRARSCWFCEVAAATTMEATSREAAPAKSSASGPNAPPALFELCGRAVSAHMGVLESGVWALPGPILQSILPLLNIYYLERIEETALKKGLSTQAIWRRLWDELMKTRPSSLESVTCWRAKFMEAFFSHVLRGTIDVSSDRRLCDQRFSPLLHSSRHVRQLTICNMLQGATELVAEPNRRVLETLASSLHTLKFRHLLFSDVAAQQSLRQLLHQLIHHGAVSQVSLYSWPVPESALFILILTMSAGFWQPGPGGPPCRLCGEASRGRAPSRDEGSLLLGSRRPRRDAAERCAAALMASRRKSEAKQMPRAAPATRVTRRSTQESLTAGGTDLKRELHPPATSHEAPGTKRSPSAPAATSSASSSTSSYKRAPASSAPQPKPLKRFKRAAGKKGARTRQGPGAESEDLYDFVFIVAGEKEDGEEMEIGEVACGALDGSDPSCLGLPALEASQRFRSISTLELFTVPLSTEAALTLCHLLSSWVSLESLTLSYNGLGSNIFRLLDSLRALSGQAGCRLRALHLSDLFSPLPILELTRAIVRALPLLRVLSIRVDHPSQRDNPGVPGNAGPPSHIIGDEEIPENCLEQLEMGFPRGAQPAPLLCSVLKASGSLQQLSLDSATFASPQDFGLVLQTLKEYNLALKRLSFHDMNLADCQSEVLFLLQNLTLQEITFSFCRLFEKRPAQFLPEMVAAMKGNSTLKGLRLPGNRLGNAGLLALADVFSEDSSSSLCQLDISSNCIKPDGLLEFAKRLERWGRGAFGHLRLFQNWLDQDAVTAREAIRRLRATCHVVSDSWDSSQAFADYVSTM

Tests used:
Experiment in all cases: log2 fold change, soluble protein after heating vs DMSO (PISA); higher = thermal stabilisation; K562 lysate, 10 uM; active = over 0.2 and 3.5 SD of the protein, either way, in both replicates (recomputed)
Tubastatin A = compound: CN1CCc2c(c3ccccc3n2Cc2ccc(C(=O)NO)cc2)C1 [Tubastatin A]
In short: (§1)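 The values are log-two fold changes in thermal stability compared with solvent controls and come from duplicates. They were obtained by TMTpro 16plex LC-MS/MS, with channel sums equalised, on the supernatant after 21,000xg for 90 min. That supernatant came from crude K562 extract at 1 mg/mL protein treated with 10 μM compound for 30 min, heated for 3 min across 48°C-58°C, pooled and brought to 0.5% NP-40 at 4°C.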

[1] = compound: CNC(=O)C1=CC=CC=C1NC2=NC(=NC=C2Cl)NC3=C(C=C(C=C3)N4CCOCC4)OC
In short: as §1

defactinib = compound: CNC(=O)c1ccc(Nc2ncc(C(F)(F)F)c(NCc3nccnc3N(C)S(C)(=O)=O)n2)cc1 [defactinib]
In short: as §1

[2] = compound: CNc1nc(-c2ccc3c(N)n[nH]c3c2)cc(N2C[C@@H](C(=O)NC3CCCCC3)CC[C@H]2C)n1
In short: as §1

encorafenib = compound: COC(=O)N[C@@H](C)CNc1nccc(-c2cn(C(C)C)nc2-c2cc(Cl)cc(NS(C)(=O)=O)c2F)n1 [encorafenib]
In short: as §1

[3] = compound: COC(=O)[C@H](CCSC)NC(=O)C1=C(C=C(C=C1)NC[C@H](CS)N)C2=CC=CC=C2
In short: as §1

alisertib = compound: COc1cc(Nc2ncc3c(n2)-c2ccc(Cl)cc2C(c2c(F)cccc2OC)=NC3)ccc1C(=O)O [alisertib]
In short: as §1

[4] = compound: COc1cc2nc(-c3cc(F)ccc3O)nc(N[C@@H]3CNC[C@H]3C(C)(C)O)c2cc1OC
In short: as §1

gefitinib = compound: COc1cc2ncnc(Nc3ccc(F)c(Cl)c3)c2cc1OCCCN1CCOCC1 [gefitinib]
In short: as §1

lapatinib = compound: CS(=O)(=O)CCNCc1ccc(-c2ccc3ncnc(Nc4ccc(OCc5cccc(F)c5)c(Cl)c4)c3c2)o1 [lapatinib]
In short: as §1

pictilisib = compound: CS(=O)(=O)N1CCN(Cc2cc3nc(-c4cccc5[nH]ncc45)nc(N4CCOCC4)c3s2)CC1 [pictilisib]
In short: as §1

duvelisib = compound: C[C@H](Nc1ncnc2nc[nH]c12)c1cc2cccc(Cl)c2c(=O)n1-c1ccccc1 [duvelisib]
In short: as §1

tozasertib = compound: Cc1cc(Nc2cc(N3CCN(C)CC3)nc(Sc3ccc(NC(=O)C4CC4)cc3)n2)n[nH]1 [tozasertib]
In short: as §1

bafetinib = compound: Cc1ccc(NC(=O)c2ccc(CN3CC[C@H](N(C)C)C3)c(C(F)(F)F)c2)cc1Nc1nccc(-c2cncnc2)n1 [bafetinib]
In short: as §1

alvocidib = compound: CN1CC[C@H](c2c(O)cc(O)c3c(=O)cc(-c4ccccc4Cl)oc23)[C@H](O)C1 [alvocidib]
In short: as §1

[5] = compound: C[C@H](C1=CC=C(C=C1)C(=O)NC2=C3C=CNC3=NC=C2)N
In short: as §1

gandotinib = compound: Cc1cc(Nc2cc(CN3CCOCC3)c3nc(C)c(Cc4ccc(Cl)cc4F)n3n2)n[nH]1 [gandotinib]
In short: as §1

[6] = compound: Cc1cccc(CC(=O)N2CCc3c2ccc(-c2cn(C)c4ncnc(N)c24)c3F)n1
In short: as §1

crizotinib = compound: C[C@@H](Oc1cc(-c2cnn(C3CCNCC3)c2)cnc1N)c1c(Cl)ccc(F)c1Cl [crizotinib]
In short: as §1

doramapimod = compound: Cc1ccc(-n2nc(C(C)(C)C)cc2NC(=O)Nc2ccc(OCCN3CCOCC3)c3ccccc23)cc1 [doramapimod]
In short: as §1

Measured: log2 fold change

LDHC (UniProt P07864)
inactive: Tubastatin A 0.085 | [1] 0.115 | defactinib 0.02 | [2] 0.054 | encorafenib -0.009 | [3] -0.028 | alisertib 0.018 | [4] 0.025 | gefitinib -0.195 | lapatinib -0.032 | pictilisib -0.039 | duvelisib -0.007 | tozasertib -0.046 | bafetinib 0.12

LONP2 (UniProt Q86WA8)
inactive: alvocidib -0.208 | defactinib 0.018 | [5] -0.099 | gandotinib 0.16 | [6] 0.045

LCN2 (UniProt P80188)
inactive: [1] 0.071 | defactinib -0.661 | alisertib -0.104 | [4] 0.061 | gefitinib -0.039 | lapatinib 0.028

LRRCC1 (UniProt Q9C099)
inactive: Tubastatin A 0.039 | [1] 0.037 | defactinib 0.012 | [2] 0.168 | encorafenib -0.057 | [3] 0.092 | alisertib 0.009 | [4] 0.052 | gefitinib 0.23 | lapatinib -0.055 | crizotinib 0.034 | duvelisib 0.036 | tozasertib -0.071 | doramapimod 0.078

LRP6 (UniProt O75581)
inactive: Tubastatin A 0.122 | [1] -0.022 | [2] 0.005 | encorafenib -0.309 | [3] 0.049 | pictilisib 0.104 | crizotinib 0.033 | duvelisib 0.052 | tozasertib -0.114 | doramapimod -0.058 | bafetinib 0.05

LIPT2 (UniProt A6NK58)
inactive: encorafenib 0.004 | [3] -0.129 | [4] -0.002 | lapatinib 0 | pictilisib -0.258 | tozasertib 0.003 | bafetinib -0.287

LRG1 (UniProt P02750)
inactive: alvocidib -0.051 | [1] -0.392 | encorafenib 0.105 | [3] 0.038 | pictilisib -0.173 | crizotinib -0.105 | [5] -0.002 | gandotinib 0.065 | tozasertib -0.02 | doramapimod 0.04 | bafetinib 0.082 | [6] 0.054

LRPPRC (UniProt H7C3W8)
inactive: defactinib -0.063

Reprinted from the entries so far (two entries):
LRP6 (UniProt O75581)
inactive: Tubastatin A 0.122 | [1] -0.022 | [2] 0.005 | encorafenib -0.309 | [3] 0.049 | pictilisib 0.104 | crizotinib 0.033 | duvelisib 0.052 | tozasertib -0.114 | doramapimod -0.058 | bafetinib 0.05

LIPT2 (UniProt A6NK58)
inactive: encorafenib 0.004 | [3] -0.129 | [4] -0.002 | lapatinib 0 | pictilisib -0.258 | tozasertib 0.003 | bafetinib -0.287

More records:

LNX1 (UniProt Q8TBB1)
inactive: [2] 0.195 | crizotinib 0.026 | duvelisib -0.139 | doramapimod 0.193

LSM14B (UniProt Q9BX40)
inactive: Tubastatin A 0.031 | [1] 0.18 | alisertib 0.036 | [4] -0.072 | gefitinib -0.08 | lapatinib 0.022 | pictilisib -0.035 | crizotinib -0.057 | doramapimod 0.108 | bafetinib 0.162

LIN52 (UniProt Q52LA3)
inactive: Tubastatin A 0.048 | [1] -0.015 | [2] -0.098 | [4] 0.05 | lapatinib 0.255 | crizotinib 0.089 | duvelisib 0.021 | doramapimod 0.082

LRCH1 isoform 3 (UniProt Q9Y2L9)
inactive: Tubastatin A -0.338 | [2] 0.016 | alisertib 0.173 | [4] -0.022 | gefitinib -0.071 | lapatinib -0.012 | pictilisib -0.061 | duvelisib 0 | bafetinib -0.128

LINC00526 (UniProt Q96FQ7)
inactive: crizotinib 0 | doramapimod 0.008

LHFPL2 (UniProt Q6ZUX7)
inactive: pictilisib -0.148 | crizotinib -0.068 | doramapimod -0.064 | bafetinib -0.094

LRRC41 (UniProt Q15345)
inactive: Tubastatin A -0.02 | [1] -0.058 | defactinib 0.089 | [2] 0.033 | encorafenib 0.024 | [3] -0.059 | alisertib -0.18 | [4] -0.005 | gefitinib 0.035 | lapatinib 0.017 | pictilisib 0.002 | crizotinib 0.067 | duvelisib 0.107 | tozasertib -0.013 | doramapimod -0.003 | bafetinib -0.027
